In article PMC5451212, “RISC-interacting clearing 3’- 5’ exoribonucleases (RICEs) degrade uridylated cleavage fragments to maintain functional RISC in Arabidopsis thaliana” (eLife, 2017) one finds binding data, which are given here for two substances.

Results are given in words; binding and its absence hold for the method and conditions named. Tags and fused reporters may be left off the sequences shown.

The target in experiment [1] is T1, 6His-SUMO-RICE1 (A. thaliana) (UniProt Q9SF21).
T1 sequence: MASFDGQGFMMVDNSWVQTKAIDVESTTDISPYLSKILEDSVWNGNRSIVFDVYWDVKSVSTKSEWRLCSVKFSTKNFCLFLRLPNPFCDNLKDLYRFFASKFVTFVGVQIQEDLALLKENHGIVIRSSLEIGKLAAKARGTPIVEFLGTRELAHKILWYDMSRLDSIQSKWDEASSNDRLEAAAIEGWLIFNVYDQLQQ
Put plainly: pull-down; His-SUMO baits and MBP-fusion preys purified from E. coli; prey preabsorbed on Ni-NTA resin, then incubated with bait 1 hr at room temperature and captured on Ni-NTA; 50 mM Tris pH 7.5, 150 mM NaCl, 0.2% glycerol, 0.6% Triton X-100, 0.5 mM β-mercaptoethanol; six washes with 300 mM NaCl; blot with anti-MBP; both purified.

The target of experiment [2] is T2, 6His-SUMO-RICE2 (A. thaliana) (UniProt Q9FNG3).
T2 sequence: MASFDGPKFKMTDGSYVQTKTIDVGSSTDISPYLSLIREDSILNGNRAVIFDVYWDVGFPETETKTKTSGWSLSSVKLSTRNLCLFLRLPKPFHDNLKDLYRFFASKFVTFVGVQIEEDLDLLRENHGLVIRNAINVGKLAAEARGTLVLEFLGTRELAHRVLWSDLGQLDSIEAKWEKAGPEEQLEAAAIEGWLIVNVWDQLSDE
The description is as above.

Regarding “MBP-tagged variable part of the AGO1 N-terminal domain (A. thaliana) (domain or fragment)”, the binding entry in experiment [1] and in experiment [2] was “no binding” each time.
For “MBP-tagged variable part of the AGO10 N-terminal domain (A. thaliana) (domain or fragment)”, the binding result in experiment [1] and in experiment [2] was “no binding” in each case.
